Measurements from PubChem BioAssay AID1259415 (National Center for Advancing Translational Sciences (NCATS), 2018).
Where “and” joins values, the source holds several entries; their conditions need not be identical. Equal values may be shown once. The whole screen tested about 410,000 compounds, of which about 18,000 (4.4%) were called active. The inconclusive results got no clear call from the source; some entries with a clear call stand among them for comparison. Rule as the data show it: active = activity change below about -60%; inconclusive = no clear call, values can overlap the other calls; inactive = above about -39%.

Assay: qHTS Assay for inhibitors of the human cytomegalovirus (HCMV)
Settings: HFF cells, HCMV-luciferase reporter, 72 h; at 57.5 µM; stronger effect = lower value
In short: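 Steps: HFFs plated, 16 h 37C; compounds added; HCMV-luciferase added to MOI 1 PFU/cell; 72 h 37C; OneGlo reagent, 5 min room temperature; luminescence read, normalized to controls.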
% is scaled to controls: 0 for no effect and ±100 for the full control effect.

Structure (SMILES) | activity change, negative = inhibition
NC(=O)c1nsc(C(=O)N(c2ccccc2F)C(C(=O)NCc2ccc(F)cc2)c2ccc(O)cc2)c1N (stereo not drawn) | active: -102%
O=C(CSc1nnc(-c2cccs2)n1Cc1ccco1)c1ccc2c(c1)OCO2 | inconclusive: -56.4%
NCCSC1CC(=O)N(c2ccc(Cl)c(Cl)c2)C1=O (stereo not drawn) | inactive: 63.6%
COc1ccc(CNC(=O)C2Cc3cc(S(=O)(=O)N4CCCC4)ccc3N2C(C)=O)c(OC)c1 (stereo not drawn) | inactive: -19.5%
COc1cc2sc3ccc(C#Cc4ccc(N)cc4)cc3c(=O)c2cc1OC | inconclusive: -47.2%
CNC(=O)c1ccsc1NC(=O)c1ccc(S(=O)(=O)N2CCCc3ccccc32)cc1 | active: -62.2%
COc1ccccc1CNC(=O)CCc1cn(C)c2ccccc12 | inconclusive: -43.7%
Cc1cc(NS(=O)(=O)c2ccc(N)cc2)no1 | inconclusive: -40.9%
O=C(Nc1ccc(Br)cc1)c1csc(-c2ccncc2)n1 | inconclusive: -50.4%
CS(=O)(=O)N(Cc1ccccc1)c1ccc(C(=O)Nc2cccc(Cl)c2)cc1 | inactive: -11.6%
CCCCC1CCC(C(=O)N2CC(=O)Nc3ccc(C)cc3C2c2ccc(F)cc2)CC1 (stereo not drawn) | inconclusive: -53.8%
Cc1cccc(C)c1OCC(=O)Nc1ccccc1N1CCCCC1 | inconclusive: -45.2%
COc1ccc(CN2CCc3c(c(=O)n4ncc(C(=O)N5CCN(c6ccccc6F)CC5)c4n3C)C2)cc1 | inconclusive: -46.3%
O=C(O)COc1ccc(/C=N/Nc2nc(Nc3ccccc3)nc(N3CCCCC3)n2)cc1 | inconclusive: -51.7%
CN(C)c1ccc(/C=N/NC(N)=S)cc1[N+](=O)[O-] | inactive: 11.5%
COC(=O)Cc1ccc(NC(=S)N2CCN(c3cccc(O)c3)CC2)cc1 | active: -63.9%
Cc1ccc(/C=N/NC(=O)Cn2nccc2C)o1 | inactive: -5.47%
O=C(NN1C(=O)C2C3C=CC(C4CC34)C2C1=O)c1cccc(Cl)c1 (stereo not drawn) | inconclusive: -51.8%
OCCCN1CCN(CCOc2ccccc2-c2ccccc2)CC1 | inactive: -17.1%
O=C(Cc1ccccc1)N/N=C/c1cc2c(cc1Cl)OCO2 | inconclusive: -47.3%
COc1ccc(NS(=O)(=O)c2ccc3c(c2)CCCN3C(C)=O)cc1 | inconclusive: -42.6%

Structure (SMILES) | activity change, negative = inhibition
c1ccc(C2[C@H]3CN(Cc4cccnc4)[C@H](c4ccccc4)C34CC2(c2cccnc2)C4)cc1 (stereo partly drawn) | active: -64.6%
NNC(=O)CNC(c1ccccc1)c1cc(Cl)ccc1NC(=O)c1ccccc1 (stereo not drawn) | inconclusive: -44.3%
O=C(CSc1nc2ccccc2o1)NCC(=O)c1ccccc1 | inconclusive: -45.7%
COc1ccccc1CC1(C)C(=O)Nc2ccc(OC(F)(F)F)cc21 (stereo not drawn) | inactive: -18.7%
COc1ccc(C)cc1NC(=O)N1CCN(S(=O)(=O)c2ccc3c(ccn3C)c2)CC1 | inactive: 13.2%
CC(C)C(=O)NCC(c1cccs1)S(=O)(=O)c1ccc(F)cc1 (stereo not drawn) | inconclusive: -58.7%
N#CCSc1nnc(-c2ccccc2)c(-c2ccccc2)n1 | inconclusive: -49.1%
Cc1ccccc1CSc1nnc(-c2cccs2)n1Cc1ccco1 | inconclusive: -45.3%
CCC(NC(=O)c1ccccc1NC(=O)c1ccc(OC)cc1)C(=O)N1CCCC1 (stereo not drawn) | inconclusive: -44.8%
O=S(=O)(c1cccc(S(=O)(=O)N2CCCC2)c1)c1cccc(S(=O)(=O)N2CCCC2)c1 | inconclusive: -40.8%
Cc1ccc(S(=O)(=O)N2CC3C(=O)C[C@@H](c4ccccc4)N(S(=O)(=O)c4ccc(CCCOCCOCCNC(=O)OC(C)(C)C)cc4)C3CC2c2ccccc2)cc1 (stereo partly drawn) | inconclusive: -42.4%
N#Cc1c(-c2ccc(F)cc2)cc(C2CC2)nc1SCC(=O)c1cccs1 | inconclusive: -52.3%
O=C(NCc1ccc(Cl)cc1)C1CCN(c2nn3cc(-c4ccc(F)cc4)nc3s2)CC1 | inconclusive: 0%
CSC1=C(C#N)C(CC(C)C)C2=C(CCCC2=O)N1 (stereo not drawn) | inconclusive: -44%
C[C@H]1CN([C@@H](C)CO)C(=O)CCCn2cc(nn2)CO[C@@H]1CN(C)S(=O)(=O)c1ccccc1F | inactive: 1.59%
O=C(NNC(=O)c1cc(-c2ccccc2)nc2ccccc12)Nc1cccc(Cl)c1 | inconclusive: -51.8%
O=C(c1ccc(S(=O)(=O)N2CCCC2)cc1)N(c1ccccc1)C1C=CS(=O)(=O)C1 (stereo not drawn) | inactive: -9.1%
Cc1c(NC(=O)C(C)OC(=O)/C=C/c2ccccc2)c(=O)n(-c2ccccc2)n1C (stereo not drawn) | inconclusive: -53.3%
N#C/C(=C\C=C\c1ccccc1)C(=O)NCc1ccco1 | inconclusive: -44.7%
O=C(c1ccc([N+](=O)[O-])cc1)N1CCC(Cc2ccccc2)CC1 | inactive: -5.74%
C=CCN1C(=O)/C(=C/c2ccc(O)cc2)S/C1=N/c1nccs1 | inconclusive: -53.6%

Grouped by structure: those above with a halogen (15)
Structure (SMILES) | activity change, negative = inhibition
NC(=O)c1nsc(C(=O)N(c2ccccc2F)C(C(=O)NCc2ccc(F)cc2)c2ccc(O)cc2)c1N (stereo not drawn) | active: -102%
NCCSC1CC(=O)N(c2ccc(Cl)c(Cl)c2)C1=O (stereo not drawn) | inactive: 63.6%
O=C(Nc1ccc(Br)cc1)c1csc(-c2ccncc2)n1 | inconclusive: -50.4%
CS(=O)(=O)N(Cc1ccccc1)c1ccc(C(=O)Nc2cccc(Cl)c2)cc1 | inactive: -11.6%
CCCCC1CCC(C(=O)N2CC(=O)Nc3ccc(C)cc3C2c2ccc(F)cc2)CC1 (stereo not drawn) | inconclusive: -53.8%
COc1ccc(CN2CCc3c(c(=O)n4ncc(C(=O)N5CCN(c6ccccc6F)CC5)c4n3C)C2)cc1 | inconclusive: -46.3%
O=C(NN1C(=O)C2C3C=CC(C4CC34)C2C1=O)c1cccc(Cl)c1 (stereo not drawn) | inconclusive: -51.8%
O=C(Cc1ccccc1)N/N=C/c1cc2c(cc1Cl)OCO2 | inconclusive: -47.3%
NNC(=O)CNC(c1ccccc1)c1cc(Cl)ccc1NC(=O)c1ccccc1 (stereo not drawn) | inconclusive: -44.3%
COc1ccccc1CC1(C)C(=O)Nc2ccc(OC(F)(F)F)cc21 (stereo not drawn) | inactive: -18.7%
CC(C)C(=O)NCC(c1cccs1)S(=O)(=O)c1ccc(F)cc1 (stereo not drawn) | inconclusive: -58.7%
N#Cc1c(-c2ccc(F)cc2)cc(C2CC2)nc1SCC(=O)c1cccs1 | inconclusive: -52.3%
O=C(NCc1ccc(Cl)cc1)C1CCN(c2nn3cc(-c4ccc(F)cc4)nc3s2)CC1 | inconclusive: 0%
C[C@H]1CN([C@@H](C)CO)C(=O)CCCn2cc(nn2)CO[C@@H]1CN(C)S(=O)(=O)c1ccccc1F | inactive: 1.59%
O=C(NNC(=O)c1cc(-c2ccccc2)nc2ccccc12)Nc1cccc(Cl)c1 | inconclusive: -51.8%

Reformatted in CSV form: 2 of the compounds above.
Structure (SMILES),"activity change, negative = inhibition"
O=S(=O)(c1cccc(S(=O)(=O)N2CCCC2)c1)c1cccc(S(=O)(=O)N2CCCC2)c1,inconclusive: -40.8%
Cc1ccc(S(=O)(=O)N2CC3C(=O)C[C@@H](c4ccccc4)N(S(=O)(=O)c4ccc(CCCOCCOCCNC(=O)OC(C)(C)C)cc4)C3CC2c2ccccc2)cc1 (stereo partly drawn),inconclusive: -42.4%

(list continues)

Structure (SMILES) | activity change, negative = inhibition
CC1CCCCC1NCC#CCOc1ccc(Cl)cc1 (stereo not drawn) | inconclusive: -55.4%
COc1ccc(/C=C/C(=O)c2ccc(C(=O)/C=C/c3ccc(OC)c(OC)c3)cc2)cc1OC | active: -75.9%
CC(C)Oc1nnnn1-c1ccccc1 | inconclusive: -52.1%
c1cncc(-c2nc(NCc3cccs3)c3ccccc3n2)c1 | inconclusive: -51.5%
c1ccc2oc(-c3[nH]ncc3CN(Cc3ccncc3)CC3CCCO3)cc2c1 (stereo not drawn) | inconclusive: -43.5%
CCCc1nc2ccc(NC(=O)NCCC(=O)OCC)cc2c(=O)n1Cc1cccc(Cl)c1 | inconclusive: -50.3%
Cn1c(O)c(C=NC2CCN(Cc3ccccc3)CC2)c(=O)[nH]c1=O | inconclusive: -57.9%
CC1=CC(C)(C)NC(=S)N1c1ccc(N(C)C)cc1 | inconclusive: -47.4%
CCCN(C(=O)CSCc1c(C)noc1C)c1c(N)n(Cc2ccccc2)c(=O)[nH]c1=O | inactive: 24.7%
Cc1c(N(C(=O)CNC(=O)c2ccccc2)C2(C(=O)NC3CCCCC3)CCCCC2)c(=O)n(-c2ccccc2)n1C | inconclusive: -59.7%
COc1ccc(-c2csc(NC3=NCCCCC3)n2)cc1 | inconclusive: -42.9%
CCN1CCN(C(=S)NCCc2ccccc2)CC1 | inactive: 44.6%
Clc1nc(-c2cccnc2)nc2scc(-c3ccccc3)c12 | inconclusive: -42.8%
COc1ccc(CNC(=O)CN2C(=O)CC(c3ccc(C)c(C)c3)=Nc3ccccc32)cc1 | inactive: 43.1%
CC(=O)c1c(C)[nH]c(C(=O)Nc2cccc(C(F)(F)F)c2)c1C | inconclusive: -49.1%
Cc1c(-c2ccccc2)n[nH]c1C(=O)NN | inactive: -8.92%
O=C(Nc1cc(Cl)cc(Cl)c1)N[C@@H]1CC[C@@H](CCNS(=O)(=O)c2cccc(F)c2)O[C@@H]1CO | inactive: -13%
N#CC1=C(N2CCCCC2)c2cc3c(n2C1=O)CCCC3 | inconclusive: -47.4%
COc1ccccc1/C=C(\C)C(=O)c1c(C)cc(C)[nH]c1=O | inactive: -35.6%
COc1ccc(-c2cc(C(F)(F)F)nc(SCCC(=O)Nc3ccc(OC)c(OC)c3)n2)cc1 | inconclusive: -57.2%
CCOC(=O)Cc1nn(Cc2nc(-c3ccc(C#N)cc3)cs2)c(=O)c2ccccc12 | inconclusive: -58.3%

Structure (SMILES) | activity change, negative = inhibition
CCN1CCC(N(Cc2ccc3c(c2)OCO3)C(=O)Nc2cc(F)ccc2F)CC1 | inactive: -18.8%
O=[N+]([O-])c1ccc2nc(-c3ccc(Cl)cc3)n(OCc3ccccc3)c2c1 | inactive: -5.31%
Cn1nc(C(F)(F)F)c(-c2ccccc2)c1N | inconclusive: -57.6%
CC(NC(=O)Cn1ccc2cc(S(=O)(=O)N3CCCCCC3)ccc21)c1ccccc1 (stereo not drawn) | inactive: -26.2%
C=C(C)COc1ccc(-c2[nH]ncc2-c2ccccc2)c(O)c1 | inconclusive: -58.9%
O=S(=O)(c1ccc(F)cc1)c1nc(-c2ccco2)oc1Nc1ccc(F)cc1 | active: -73.6%
NC(=O)CC(NC(=O)c1cccc(Br)c1)c1ccc(N2CCN(c3ccc(F)cc3)CC2)c([N+](=O)[O-])c1 (stereo not drawn) | inactive: -0.889%
CCc1nn(CCCC(=O)NCc2ccc(OC(C)C)cc2)c(=O)c2cc3occc3n12 | inconclusive: -52.6%
Cc1ccccc1C(=O)N1CCC(C(=O)Nc2ccc(S(=O)(=O)N3C(C)CCCC3C)cc2)CC1 (stereo not drawn) | inconclusive: -58.1%
COCOCCn1cc(CN2CCS(=O)(=O)N(Cc3ccc(-c4ccc(F)cc4)cc3)C(C(C)C)C2=O)nn1 (stereo not drawn) | inactive: -8.88%
Oc1c(CN2CCCC(C(F)(F)F)C2)cc(Cl)c2ccccc12 (stereo not drawn) | inactive: -13%
CCC1CCCCN1C(=O)c1c[nH]c2ccc(S(=O)(=O)N(C)c3ccc(Cl)cc3)cc2c1=O (stereo not drawn) | inconclusive: -43.2%
C=C(C)COc1ccc(-c2[nH]ncc2Oc2cccc(OC)c2)c(O)c1 | inconclusive: -60%
Cc1cc(C)c(NC(=O)Cn2c(=O)n(CCC(=O)N3CCc4ccccc4C3)c(=O)c3ccccc32)c(C)c1 | inconclusive: -45.8%
CC(C)(C)c1ccc(C2CC2C(=O)N/N=C\c2ccc[nH]2)cc1 (stereo not drawn) | active: -99.8%
S=C(NCCc1ccccc1)Nc1ccccn1 | inactive: 25.4%
O=C(NCc1ccccc1Cl)c1ccc(CS(=O)(=O)c2ccc(Br)cc2)o1 | inconclusive: -55.7%
CCOC(=O)C1CCN(C(=O)Cn2nc(CC)n3c(cc4sccc43)c2=O)CC1 | inactive: -26.1%
COC(=O)c1ccc(C(=O)OC)c(NC(=O)CN(c2ccccc2)S(=O)(=O)N(C)C)c1 | inactive: 2.92% and inactive: -21.5%
O=C(COC(=O)c1ccccc1Br)NC(=O)NCc1ccccc1 | inconclusive: -44.2%
